Assay results reported in PubChem BioAssay AID258 (DTP/NCI, 2004).
The list shows only some results of the screen, not a fair sample: it covers a few groups of compounds. Other doses and runs of a compound may be missing. T/C is the treated group as % of the vehicle group. Where survival is the endpoint, this PubChem deposit counts one and a half times the control or more as active, and values a quarter to a half above the control carry no call in these data; other NCI protocols may use other cut-offs. Schedules are NCI's codes, read here as Q, the interval in days (D) or hours (H), X, the number of doses. Some schedule codes hold Z or #, which are not explained here. Some T/C values are followed by the survivors on the day toxicity was checked, most often the fifth; where neither a count nor a note follows, no animal had died by that day.

System: CD2F1 mice, L1210 leukemia sc, survival T/C
Assay: NCI In Vivo Anticancer Drug Screen. Data for tumor model L1210 Leukemia (subcutaneous) in CD2F1 (CDF1) mice
Settings: higher T/C = longer survival
Description: The antitumor activity of compounds was measured in mice bearing transplantable tumors. Survival or tumor size were measured and the results are expressed as the measurement made in the treated group (T) divided by the measurement made in the vehicle treated control group (C). The tumor model used in this assay is L1210 Leukemia (subcutaneous) in CD2F1 (CDF1) mice

NC(=O)c1[nH]cnc1/N=N\N(CCCl)CCCl
T/C (T/C endpoint: mean survival time, dose: 50.0 mg/kg/injection, schedule: Q01DX001 (sc), vehicle: steroid suspending solution): 127 % of control
T/C (T/C endpoint: mean survival time, dose: 100.0 mg/kg/injection, schedule: Q01DX001 (sc), vehicle: steroid suspending solution): 139 % of control
T/C (T/C endpoint: mean survival time, dose: 200.0 mg/kg/injection, schedule: Q01DX001 (sc), vehicle: steroid suspending solution): 172 % of control
T/C (T/C endpoint: mean survival time, dose: 400.0 mg/kg/injection, schedule: Q01DX001 (sc), vehicle: steroid suspending solution): 218 % of control
T/C (T/C endpoint: mean survival time, dose: 800.0 mg/kg/injection, schedule: Q01DX001 (sc), vehicle: steroid suspending solution): 213 % of control
T/C (T/C endpoint: median survival time, dose: 1.56 mg/kg/injection, schedule: Q01DX009 (ip), vehicle: saline with Tween-80): 103 % of control
T/C (T/C endpoint: median survival time, dose: 3.13 mg/kg/injection, schedule: Q01DX009 (ip), vehicle: saline with Tween-80): 104 % of control
T/C (T/C endpoint: median survival time, dose: 6.25 mg/kg/injection, schedule: Q01DX009 (ip), vehicle: saline with Tween-80): 106 % of control
T/C (T/C endpoint: median survival time, dose: 12.5 mg/kg/injection, schedule: Q01DX009 (ip), vehicle: saline + alcohol): 151 % of control
T/C (T/C endpoint: median survival time, dose: 12.5 mg/kg/injection, schedule: Q01DX009 (ip), vehicle: saline with Tween-80): 116 % of control
T/C (T/C endpoint: median survival time, dose: 12.5 mg/kg/injection, schedule: Q01DX009 (sc), vehicle: saline + alcohol): 123 % of control
T/C (T/C endpoint: median survival time, dose: 12.5 mg/kg/injection, schedule: Q01DX009 (sc), vehicle: saline): 113 % of control [9 of 10 alive]
T/C (T/C endpoint: median survival time, dose: 25.0 mg/kg/injection, schedule: Q01DX009 (ip), vehicle: saline + alcohol): 202 % of control [9 of 10 alive]
T/C (T/C endpoint: median survival time, dose: 25.0 mg/kg/injection, schedule: Q01DX009 (ip), vehicle: saline with Tween-80): 164 % of control
T/C (T/C endpoint: median survival time, dose: 25.0 mg/kg/injection, schedule: Q01DX009 (sc), vehicle: saline + alcohol): 202 % of control
T/C (T/C endpoint: median survival time, dose: 25.0 mg/kg/injection, schedule: Q01DX009 (sc), vehicle: saline): 125 % of control
T/C (T/C endpoint: median survival time, dose: 25.0 mg/kg/injection, schedule: Q01DX Z (sc), vehicle: carboxymethylcellulose (CMC)): 170 % of control
T/C (T/C endpoint: median survival time, dose: 33.3 mg/kg/injection, schedule: Q01DX009 (sc), vehicle: saline with Tween-80, evaluated on day 30): 229 % of control
T/C (T/C endpoint: median survival time, dose: 33.3 mg/kg/injection, schedule: Q01DX009 (sc), vehicle: saline with Tween-80, evaluated on day 45): 218 % of control
T/C (T/C endpoint: median survival time, dose: 50.0 mg/kg/injection, schedule: Q01DX001 (sc), vehicle: steroid suspending solution, evaluated on day 6): 126 % of control
T/C (T/C endpoint: median survival time, dose: 50.0 mg/kg/injection, schedule: Q01DX001 (sc), vehicle: steroid suspending solution, evaluated on day 27): 127 % of control
T/C (T/C endpoint: median survival time, dose: 50.0 mg/kg/injection, schedule: Q01DX009 (ip), vehicle: saline + alcohol): 261 % of control
T/C (T/C endpoint: median survival time, dose: 50.0 mg/kg/injection, schedule: Q01DX009 (ip), vehicle: saline with Tween-80): 172 % of control
T/C (T/C endpoint: median survival time, dose: 50.0 mg/kg/injection, schedule: Q01DX009 (sc), vehicle: saline + alcohol): 224 % of control
T/C (T/C endpoint: median survival time, dose: 50.0 mg/kg/injection, schedule: Q01DX009 (sc), vehicle: saline with Tween-80, evaluated on day 30): 247 % of control
T/C (T/C endpoint: median survival time, dose: 50.0 mg/kg/injection, schedule: Q01DX009 (sc), vehicle: saline with Tween-80, evaluated on day 45): 252 % of control
T/C (T/C endpoint: median survival time, dose: 50.0 mg/kg/injection, schedule: Q01DX009 (sc), vehicle: saline): 281 % of control
T/C (T/C endpoint: median survival time, dose: 50.0 mg/kg/injection, schedule: Q01DX Z (sc), vehicle: carboxymethylcellulose (CMC)): 358 % of control
T/C (T/C endpoint: median survival time, dose: 66.7 mg/kg/injection, schedule: Q01DX009 (ip), vehicle: saline with Tween-80): 301 % of control
T/C (T/C endpoint: median survival time, dose: 75.0 mg/kg/injection, schedule: Q01DX009 (ip), vehicle: saline with Tween-80): 132 % of control
T/C (T/C endpoint: median survival time, dose: 75.0 mg/kg/injection, schedule: Q01DX009 (sc), vehicle: saline with Tween-80, evaluated on day 30): 332 % of control
T/C (T/C endpoint: median survival time, dose: 75.0 mg/kg/injection, schedule: Q01DX009 (sc), vehicle: saline with Tween-80, evaluated on day 45): 260 % of control
T/C (T/C endpoint: median survival time, dose: 100.0 mg/kg/injection, schedule: Q01DX001 (sc), vehicle: steroid suspending solution, evaluated on day 6): 132 % of control
T/C (T/C endpoint: median survival time, dose: 100.0 mg/kg/injection, schedule: Q01DX001 (sc), vehicle: steroid suspending solution, evaluated on day 27): 133 % of control
T/C (T/C endpoint: median survival time, dose: 100.0 mg/kg/injection, schedule: Q01DX009 (ip), vehicle: saline + alcohol): 327 % of control
T/C (T/C endpoint: median survival time, dose: 100.0 mg/kg/injection, schedule: Q01DX009 (ip), vehicle: saline with Tween-80): 232 % of control
T/C (T/C endpoint: median survival time, dose: 100.0 mg/kg/injection, schedule: Q01DX009 (sc), vehicle: saline + alcohol): 157 % of control
T/C (T/C endpoint: median survival time, dose: 100.0 mg/kg/injection, schedule: Q01DX009 (sc), vehicle: saline with Tween-80): 262 % of control
T/C (T/C endpoint: median survival time, dose: 100.0 mg/kg/injection, schedule: Q01DX009 (sc), vehicle: saline): 261 % of control
T/C (T/C endpoint: median survival time, dose: 100.0 mg/kg/injection, schedule: Q01DX Z (sc), vehicle: carboxymethylcellulose (CMC)): 276 % of control
T/C (T/C endpoint: median survival time, dose: 150.0 mg/kg/injection, schedule: Q01DX009 (ip), vehicle: saline with Tween-80): 161 % of control
T/C (T/C endpoint: median survival time, dose: 200.0 mg/kg/injection, schedule: Q01DX001 (sc), vehicle: steroid suspending solution, evaluated on day 6): 153 % of control
T/C (T/C endpoint: median survival time, dose: 200.0 mg/kg/injection, schedule: Q01DX001 (sc), vehicle: steroid suspending solution, evaluated on day 27): 155 % of control
T/C (T/C endpoint: median survival time, dose: 200.0 mg/kg/injection, schedule: Q01DX009 (ip), vehicle: saline + alcohol): 136 % of control
T/C (T/C endpoint: median survival time, dose: 200.0 mg/kg/injection, schedule: Q01DX009 (sc), vehicle: saline + alcohol): 128 % of control
T/C (T/C endpoint: median survival time, dose: 200.0 mg/kg/injection, schedule: Q01DX009 (sc), vehicle: saline with Tween-80): 195 % of control
T/C (T/C endpoint: median survival time, dose: 200.0 mg/kg/injection, schedule: Q01DX009 (sc), vehicle: saline): 215 % of control
T/C (T/C endpoint: median survival time, dose: 200.0 mg/kg/injection, schedule: Q01DX Z (sc), vehicle: carboxymethylcellulose (CMC)): 217 % of control
T/C (T/C endpoint: median survival time, dose: 400.0 mg/kg/injection, schedule: Q01DX001 (sc), vehicle: steroid suspending solution, evaluated on day 6): 215 % of control
T/C (T/C endpoint: median survival time, dose: 400.0 mg/kg/injection, schedule: Q01DX001 (sc), vehicle: steroid suspending solution, evaluated on day 27): 216 % of control
T/C (T/C endpoint: median survival time, dose: 400.0 mg/kg/injection, schedule: Q01DX009 (ip), vehicle: saline + alcohol): 86 % of control [9 of 10 alive]
T/C (T/C endpoint: median survival time, dose: 400.0 mg/kg/injection, schedule: Q01DX009 (sc), vehicle: saline + alcohol): 107 % of control
T/C (T/C endpoint: median survival time, dose: 400.0 mg/kg/injection, schedule: Q01DX009 (sc), vehicle: saline with Tween-80, evaluated on day 30): 151 % of control
T/C (T/C endpoint: median survival time, dose: 400.0 mg/kg/injection, schedule: Q01DX009 (sc), vehicle: saline with Tween-80, evaluated on day 60): 169 % of control
T/C (T/C endpoint: median survival time, dose: 400.0 mg/kg/injection, schedule: Q01DX009 (sc), vehicle: saline): 157 % of control
T/C (T/C endpoint: median survival time, dose: 400.0 mg/kg/injection, schedule: Q01DX Z (sc), vehicle: carboxymethylcellulose (CMC)): 176 % of control
T/C (T/C endpoint: median survival time, dose: 600.0 mg/kg/injection, schedule: Q01DX009 (sc), vehicle: saline with Tween-80, evaluated on day 30): 142 % of control
T/C (T/C endpoint: median survival time, dose: 600.0 mg/kg/injection, schedule: Q01DX009 (sc), vehicle: saline with Tween-80, evaluated on day 60): 171 % of control
T/C (T/C endpoint: median survival time, dose: 800.0 mg/kg/injection, schedule: Q01DX001 (sc), vehicle: steroid suspending solution, evaluated on day 6): 212 % of control
T/C (T/C endpoint: median survival time, dose: 800.0 mg/kg/injection, schedule: Q01DX001 (sc), vehicle: steroid suspending solution, evaluated on day 27): 216 % of control
T/C (T/C endpoint: median survival time, dose: 800.0 mg/kg/injection, schedule: Q01DX009 (sc), vehicle: saline with Tween-80): 139 % of control
T/C (T/C endpoint: median survival time, dose: 1000.0 mg/kg/injection, schedule: Q01DX009 (sc), vehicle: saline with Tween-80): 127 % of control

ClCCNCCCCCNCCCl
T/C (T/C endpoint: median survival time, dose: 25.0 mg/kg/injection, schedule: Q01DX Z (sc), vehicle: saline): 95 % of control
T/C (T/C endpoint: median survival time, dose: 50.0 mg/kg/injection, schedule: Q01DX Z (sc), vehicle: saline): 100 % of control
T/C (T/C endpoint: median survival time, dose: 100.0 mg/kg/injection, schedule: Q01DX Z (sc), vehicle: saline): 100 % of control
T/C (T/C endpoint: median survival time, dose: 200.0 mg/kg/injection, schedule: Q01DX Z (sc), vehicle: saline): 100 % of control
T/C (T/C endpoint: median survival time, dose: 400.0 mg/kg/injection, schedule: Q01DX Z (sc), vehicle: saline): 110 % of control
